Results deposited as PubChem BioAssay AID1159584 (Peter MacCallum Cancer Centre, 2016).

Purpose: 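Genes whose loss is lethal only together with E-cadherin loss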 (primary screen)
Cell system: human MCF10A breast epithelial cells, parental and CDH1-null
Knock-down reagent: siRNA against human genes
Read-out: 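Cell viability by CellTiter-Glo ATP luminescence, each line scaled to the mean of mock wells across plates, then CDH1-null over parental ratio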
Reading the numbers: CDH1-null / parental viability ratio: higher = CDH1-null cells survive relatively better than parental; CDH1-null viability vs mock: higher = more viable CDH1-null cells; parental viability vs mock: higher = more viable parental cells
The deposit covers about 18,000 reagents; this is an unselected part. Not given: the amount of reagent, the time to read-out.

no.	gene	CDH1-null / parental viability ratio	CDH1-null viability vs mock (fraction of mock)	parental viability vs mock (fraction of mock)
1	TGFBR3	1.02	0.92	0.9
2	TRIM34	0.84	1.14	1.36
3	PLLP	1.05	0.63	0.6
4	ACSM2A	0.88	0.56	0.64
5	PRPSAP1	0.93	0.7	0.75
6	GYPC	0.92	1.02	1.11
7	SLC13A2	1.1	0.74	0.67
8	HGS	1.21	0.85	0.7
9	SFR1	1.08	0.93	0.86
10	OR1D2	1.15	0.75	0.65
11	AGPAT4	0.98	0.94	0.96
12	ABCA3	0.98	0.51	0.52
13	TBC1D5	1.19	0.38	0.32
14	MDH2	1.07	1.03	0.96
15	SENP3	1.15	0.63	0.55
16	G0S2	0.94	0.68	0.72
17	BAIAP2	1.04	1	0.96
18	ASIC3	1.57	1.16	0.74
19	KYAT3	0.52	0.32	0.61
20	OR51A4	0.88	0.5	0.57
21	TMEM101	0.86	0.74	0.86
22	BCAT2	0.76	0.56	0.74
23	FAM91A1	0.79	0.62	0.78
24	KIFC2	0.76	0.52	0.68
25	AKR1E2	1.05	1.02	0.97
26	ARL6IP5	0.96	1.08	1.12
27	MRPS6	0.93	0.62	0.67
28	ABTB3	0.97	0.58	0.6
29	SCD	1.21	0.94	0.78
30	ARVCF	1.06	0.74	0.7
31	DCUN1D2	0.78	0.72	0.92
32	FCN3	1.22	0.73	0.6
33	INSIG2	1.06	1.08	1.02
34	DLGAP5	1.27	0.99	0.78
35	MKS1	1.11	0.4	0.36
36	NKX2-2	1.1	0.87	0.79
37	EML3	1.03	0.68	0.66
38	CIMIP4	0.71	0.58	0.82
39	ARRB1	1.18	0.92	0.78
40	WFDC11	0.76	0.58	0.76
41	IL23R	0.97	0.97	1
42	ENOPH1	1.05	1.01	0.96
43	USE1	0.92	0.74	0.8
44	OR4D1	0.96	0.5	0.52
45	STAG3L2	1.08	0.57	0.53
46	JAML	1.04	0.88	0.85
47	OR1N2	1.06	0.72	0.68
48	SEPTIN4	1.03	0.94	0.91
49	CEACAM19	1.02	0.98	0.96
50	CFHR2	0.91	0.82	0.9
51	ZNF385A	1.36	0.68	0.5
52	FRAT1	0.84	0.74	0.88
53	TRIM73	0.76	0.6	0.79
54	CDKL5	0.76	0.6	0.79
55	CHRAC1	1.09	0.74	0.68
56	MTCH2	1.26	0.44	0.35
57	SLC6A15	0.94	0.94	1
58	ADAMTS14	1.72	0.55	0.32
59	CHD3	0.81	0.6	0.74
60	ABCC6	1.26	0.96	0.76
61	LEMD2	1.16	0.86	0.74
62	KEAP1	1.24	0.68	0.55
63	PLS3	1.14	0.89	0.78
64	VEPH1	1.09	0.82	0.75
65	SFN	1.26	1.01	0.8
66	RPL26L1	1.81	1.12	0.62
67	FGF23	1.2	0.66	0.55
68	LINC01587	1.05	0.98	0.93

A few values from the list.
For “parental viability vs mock (fraction of mock)”, CIMIP4 is entered as 0.82
For “CDH1-null / parental viability ratio”, FCN3 has 1.22
Result for INSIG2 in “parental viability vs mock (fraction of mock)”: 1.02
Entry for ZNF385A in “parental viability vs mock (fraction of mock)”: 0.5
For “CDH1-null / parental viability ratio”, MKS1 shows 1.11
FAM91A1, CDH1-null / parental viability ratio: 0.79
